We go through 58 compounds from the supplement of paper PMC9226226.

For the assay, the system named is Werner syndrome hMSCs (WRN-/-). Kind of assay: relative cell density (fold change vs vehicle control); higher = more proliferation (geroprotective). The note with it: concentration (umol/L): 1, 6 days.

Values joined by “and” are separate entries in the source; they are usually repeats but may differ in a detail not shown here. Equal entries are not always repeated. The list shows a part of the results. Some well-known active drugs show little effect in this data set, so a weak value is uncertain.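 The cells are human mesenchymal stem cells that lack the Werner syndrome gene and age prematurely. Growth was tracked by automated live-cell imaging in three biological repeats, and the twenty drugs that most raised growth over vehicle were taken forward, with no fixed cutoff stated.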

In turn, `O=C(Nc1cccc2c(=O)cc(-c3nnn[nH]3)oc12)c1ccc(OCCCCc2ccccc2)cc1` showed a relative cell density (vehicle: DMSO) of 0.981. The compound `NCCCC[C@H](N[C@@H](CCc1ccccc1)C(=O)O)C(=O)N1CCC[C@H]1C(=O)O` displayed a relative cell density (vehicle: Water) of 0.829. Where the note is “vehicle: Water”, `CO/N=C(\C(=O)N[C@@H]1C(=O)N2C(C(=O)O)=C(CSc3nc(=O)c(O)nn3C)CS[C@H]12)c1csc(N)n1` displayed a relative cell density of 1.3.

Under “vehicle: DMSO”, `COC1=C(OC)C(=O)C(CCCCCCCCCCO)=C(C)C1=O` came in with a relative cell density of 0.931. Still for that read-out and setting: as for `CCOC(=O)[C@H](CCc1ccccc1)N[C@H]1CCc2ccccc2N(CC(=O)O)C1=O`, the figure is 1.08. Still for that read-out and setting: as for `COc1cccc(-c2ccc(NC(=O)C3=C(C(=O)O)CCC3)c(F)c2)c1`, the figure is 1.14. Same read-out and setting: as for `CCCN[C@H]1CCc2nc(N)sc2C1`, the figure is 1.31 and 1.26 and 1.03; as for `O=C(NC1CCN(CCCCC2(C(=O)NCC(F)(F)F)c3ccccc3-c3ccccc32)CC1)c1ccccc1-c1ccc(C(F)(F)F)cc1`, 1.52 and 1.14; as for `Cc1c(-c2ccnn2C)cc(C(=O)NCc2ccc(S(C)(=O)=O)cn2)c(=O)n1-c1cccc(C(F)(F)F)c1`, 1.29. `Nc1ncn([C@@H]2O[C@H](CO)[C@@H](O)[C@H]2O)c(=O)n1`: the relative cell density (vehicle: DMSO) worked out at 1.22. Same read-out and setting: as for `CC(COc1ccccc1)N(CCCl)Cc1ccccc1` (centres undefined), the figure is 1.19; as for `CCCNC(C)C(=O)Nc1ccccc1C` (centres undefined), 1.07. The same measure, in the same setting: as for `COc1cc(/C=C/C(=O)N2CCN(CC(=O)N3CCCC3)CC2)cc(OC)c1OC`, the figure is 1.27; as for `Cn1c(=O)cc(N2CCC[C@@H](N)C2)n(Cc2cc(F)ccc2C#N)c1=O`, 0.693 and 1.26.

Consider `c1ccc(C2CN3CCSC3=N2)cc1` (centres undefined), for which the relative cell density (vehicle: Water) is 1.42.

For `Nc1ccc(S(=O)(=O)c2ccc(N)cc2)cc1`, the relative cell density (vehicle: DMSO) came out at 1.15.

With `CN(C)CCc1c[nH]c2ccc(Cn3cncn3)cc12`, the relative cell density (vehicle: DMSO) came to 1.04. In turn, `OCCN1CCN(CCCN2c3ccccc3Sc3ccc(Cl)cc32)CC1` gave a relative cell density (vehicle: DMSO) of 1.27. Consider `CCC[C@H](N[C@@H](C)C(=O)N1[C@H](C(=O)O)C[C@@H]2CCCC[C@@H]21)C(=O)OCC`, for which the relative cell density (vehicle: Water) came out at 0.947.

`CCCC(=O)O[C@]1(C(=O)COC(C)=O)CC[C@H]2[C@@H]3C[C@H](F)C4=CC(=O)C=C[C@]4(C)[C@@]3(F)[C@@H](O)C[C@@]21C` showed a relative cell density (vehicle: DMSO) of 1.47. For the compound `Cn1ncc(Cl)c1-c1cc(C(=O)N[C@H](CN)Cc2ccc(F)c(F)c2)oc1Cl`, the relative cell density (vehicle: DMSO) is 1.19. The compound `COc1ccc(NS(=O)(=O)c2ccc(N)cc2)nn1` returned a relative cell density (vehicle: DMSO) of 1.21. On the same count and under the same terms, as for `CC1(C)OC(=O)NC1=O`, the figure is 0.874; as for `CC(=O)Oc1cccc2c1C(=O)c1c(OC(C)=O)cc(C(=O)O)cc1C2=O`, 1.05. The same measure, in the same setting: as for `N=C(N)NC(=N)N1CCOCC1`, the figure is 1.02.

With `N[C@H]1C(O)O[C@H](CO)[C@@H](O)[C@@H]1O` (some centres undefined), for the setting “vehicle: DMSO”, the relative cell density was determined as 1.15. Still for that read-out and setting: as for `CN1CCCC(n2nc(Cc3ccc(Cl)cc3)c3ccccc3c2=O)CC1` (centres undefined), the figure is 1.18. `CCCC(=O)Nc1ncnc2c1ncn2[C@@H]1O[C@@H]2COP(=O)(O)O[C@H]2[C@H]1OC(=O)CCC`: for the setting “vehicle: DMSO”, the relative cell density was determined as 1.02. On the same count and under the same terms, as for `CN(C)CCC[C@@]1(c2ccc(F)cc2)OCc2cc(C#N)ccc21`, the figure is 1.18; as for `CC(C)C[C@H](NC(=O)[C@H](CCc1ccccc1)NC(=O)CN1CCOCC1)C(=O)N[C@@H](Cc1ccccc1)C(=O)N[C@@H](CC(C)C)C(=O)[C@@]1(C)CO1`, 0.201; as for `NC(=O)N/N=C/c1ccc([N+](=O)[O-])o1`, 1.01. `O=C(O[C@H]1CN2CCC1CC2)N1CCc2ccccc2[C@@H]1c1ccccc1` registered a relative cell density (vehicle: Water) of 0.614.

On to `CO[C@@H]1[C@@H](OC(N)=O)[C@@H](O)[C@H](Oc2ccc3c(O)c(NC(=O)c4ccc(O)c(CC=C(C)C)c4)c(=O)oc3c2C)OC1(C)C`, for which the relative cell density (vehicle: DMSO) came out at 1.15.

In the case of `CCN1CCN(C(=O)N[C@@H](C(=O)N[C@@H]2C(=O)N3[C@@H]2SC(C)(C)[C@@H]3C(=O)O)c2ccccc2)C(=O)C1=O`, the relative cell density (vehicle: DMSO) came out at 1.06. Under “vehicle: DMSO”, `C=C=CCNC(=O)c1ccc(F)cc1` gave a relative cell density of 1.05. For the compound `CCN(CC)CC#CCOC(=O)C(O)(c1ccccc1)C1CCCCC1` (centres undefined), the relative cell density (vehicle: DMSO) was found to be 1.02. On the same count and under the same terms, as for `Cc1ncc([N+](=O)[O-])n1CCO`, the figure is 1.23; as for `CCN(Cc1ccncc1)C(=O)C(CO)c1ccccc1` (centres undefined), 1.04.

Consider `CC(C)N1CCN(c2ccc(OCC3COC(Cn4cncn4)(c4ccc(Cl)cc4Cl)O3)cc2)CC1` (centres undefined), for which, under “vehicle: DMSO”, the relative cell density was determined as 1.22. Regarding `CN1C2CCCC1CC(NC(=O)c1nn(C)c3ccccc13)C2` (centres undefined), the relative cell density runs as follows: (vehicle: DMSO) 1.06; (vehicle: Water) 0.985. Consider `Cc1ccc(C(=O)c2cc(O)c(O)c([N+](=O)[O-])c2)cc1`, for which the relative cell density (vehicle: DMSO) worked out at 1.13. Still for that read-out and setting: as for `O=C([O-])c1ccccc1O.[Na+]`, the figure is 1.07; as for `COc1ccc2[nH]cc(CCNC(C)=O)c2c1`, 1.04.

As to `C=CC[C@@H]1/C=C(\C)C[C@H](C)C[C@H](OC)[C@H]2O[C@@](O)(C(=O)C(=O)N3CCCC[C@H]3C(=O)O[C@H](/C(C)=C/[C@@H]3CC[C@@H](O)[C@H](OC)C3)[C@H](C)[C@@H](O)CC1=O)[C@H](C)C[C@@H]2OC`, the relative cell density (vehicle: DMSO) was 1.13. The same measure, in the same setting: as for `COc1cc(CNC(=O)CCCCC=CC(C)C)ccc1O`, the figure is 0.974; as for `Cc1ccc(S(=O)(=O)NC(=O)NN2CC3CCCC3C2)cc1` (centres undefined), 1.13; as for `COc1nc(C)nc(Cl)c1NC1=NCCN1`, 1.17. The same measure, in the same setting: as for `Cc1ccc(NC(=O)c2ccc(CN3CCN(C)CC3)cc2)cc1Nc1nc(-c2cccnc2)cs1`, the figure is 1.25. `NCCS(=O)(=O)O` registered a relative cell density (vehicle: Water) of 1.04. The same measure, in the same setting: as for `COc1cc2nc(N3CCN(C(=O)c4ccco4)CC3)nc(N)c2cc1OC`, the figure is 0.385. For `CCCCS(=O)(=O)N[C@@H](Cc1ccc(OCCCCC2CCNCC2)cc1)C(=O)O`, for the setting “vehicle: DMSO”, the relative cell density amounted to 0.91. Take `CC(C)OC(=O)CCC/C=C\C[C@@H]1[C@@H](/C=C/C(F)(F)COc2ccccc2)[C@H](O)C[C@@H]1O`: under “vehicle: Water”, the relative cell density came out at 1.06.

For the compound `Oc1c(I)cc(I)c2cccnc12`, under “vehicle: DMSO”, the relative cell density worked out at 1.43. With `O=C(CCCN1CC=C(n2c(=O)[nH]c3ccccc32)CC1)c1ccc(F)cc1`, the relative cell density (vehicle: DMSO) was 1.04. `COc1ccc2cc(CCC(C)=O)ccc2c1` registered a relative cell density (vehicle: DMSO) of 1.03.

As for `CCn1cc(C(=O)O)c(=O)c2ccc(C)nc21`, the relative cell density (vehicle: DMSO) came out at 1.04. `C[C@H]1[C@@H](O)O[C@@H]2O[C@@]3(C)CC[C@H]4[C@H](C)CC[C@@H]1[C@@]24OO3` registered a relative cell density (vehicle: DMSO) of 0.606.

As for `C#CCN(C)Cc1ccccc1`, where the note is “vehicle: DMSO”, the relative cell density was 1.15.
